From the supplement of paper PMC10849652
Some of the results follow.

The chains behind the UniProt entries cited, without tags or fusion partners. Where a name states a change or a piece, a line headed by the entry shows the natural chain unless it says otherwise.
UniProt Q9H5N1: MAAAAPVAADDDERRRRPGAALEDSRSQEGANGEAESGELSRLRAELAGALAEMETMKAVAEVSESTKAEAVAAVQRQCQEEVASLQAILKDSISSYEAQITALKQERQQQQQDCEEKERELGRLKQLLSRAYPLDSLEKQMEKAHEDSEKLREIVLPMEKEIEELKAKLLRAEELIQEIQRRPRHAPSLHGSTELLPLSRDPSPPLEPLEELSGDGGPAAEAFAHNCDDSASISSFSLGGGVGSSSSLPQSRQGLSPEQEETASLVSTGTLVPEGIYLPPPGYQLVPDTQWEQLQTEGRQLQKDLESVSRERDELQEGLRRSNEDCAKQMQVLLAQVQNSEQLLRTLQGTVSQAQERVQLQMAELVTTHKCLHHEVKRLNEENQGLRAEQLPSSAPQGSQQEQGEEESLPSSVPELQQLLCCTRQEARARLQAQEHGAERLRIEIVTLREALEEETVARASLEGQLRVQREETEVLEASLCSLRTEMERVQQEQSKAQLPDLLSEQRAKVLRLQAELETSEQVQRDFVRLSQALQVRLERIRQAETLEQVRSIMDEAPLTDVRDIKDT
UniProt Q92696: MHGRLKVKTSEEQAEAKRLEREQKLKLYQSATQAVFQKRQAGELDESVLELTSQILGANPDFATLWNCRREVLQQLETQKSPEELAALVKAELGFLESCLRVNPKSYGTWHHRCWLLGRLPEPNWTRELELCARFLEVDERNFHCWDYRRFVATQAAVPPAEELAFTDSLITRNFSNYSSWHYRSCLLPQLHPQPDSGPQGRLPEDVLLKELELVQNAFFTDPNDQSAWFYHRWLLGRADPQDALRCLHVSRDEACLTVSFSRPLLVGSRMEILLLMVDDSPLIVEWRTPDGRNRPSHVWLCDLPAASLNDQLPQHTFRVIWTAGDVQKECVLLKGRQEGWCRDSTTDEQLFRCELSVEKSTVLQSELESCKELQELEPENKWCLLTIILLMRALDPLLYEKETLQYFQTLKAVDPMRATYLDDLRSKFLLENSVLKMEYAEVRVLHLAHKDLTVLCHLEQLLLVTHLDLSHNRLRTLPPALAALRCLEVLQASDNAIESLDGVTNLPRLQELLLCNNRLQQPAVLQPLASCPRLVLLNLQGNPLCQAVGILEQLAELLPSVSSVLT
UniProt P62834: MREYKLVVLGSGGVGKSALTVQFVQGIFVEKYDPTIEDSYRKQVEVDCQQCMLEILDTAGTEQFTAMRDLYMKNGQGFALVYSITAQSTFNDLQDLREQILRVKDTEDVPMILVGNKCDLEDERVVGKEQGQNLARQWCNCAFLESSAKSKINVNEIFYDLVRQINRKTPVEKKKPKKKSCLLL
UniProt P61224: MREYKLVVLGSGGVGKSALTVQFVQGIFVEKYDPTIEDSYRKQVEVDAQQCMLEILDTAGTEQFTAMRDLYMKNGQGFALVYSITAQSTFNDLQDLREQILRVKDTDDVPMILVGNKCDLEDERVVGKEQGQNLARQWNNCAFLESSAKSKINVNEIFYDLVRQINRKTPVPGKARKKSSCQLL
UniProt Q6WKZ4: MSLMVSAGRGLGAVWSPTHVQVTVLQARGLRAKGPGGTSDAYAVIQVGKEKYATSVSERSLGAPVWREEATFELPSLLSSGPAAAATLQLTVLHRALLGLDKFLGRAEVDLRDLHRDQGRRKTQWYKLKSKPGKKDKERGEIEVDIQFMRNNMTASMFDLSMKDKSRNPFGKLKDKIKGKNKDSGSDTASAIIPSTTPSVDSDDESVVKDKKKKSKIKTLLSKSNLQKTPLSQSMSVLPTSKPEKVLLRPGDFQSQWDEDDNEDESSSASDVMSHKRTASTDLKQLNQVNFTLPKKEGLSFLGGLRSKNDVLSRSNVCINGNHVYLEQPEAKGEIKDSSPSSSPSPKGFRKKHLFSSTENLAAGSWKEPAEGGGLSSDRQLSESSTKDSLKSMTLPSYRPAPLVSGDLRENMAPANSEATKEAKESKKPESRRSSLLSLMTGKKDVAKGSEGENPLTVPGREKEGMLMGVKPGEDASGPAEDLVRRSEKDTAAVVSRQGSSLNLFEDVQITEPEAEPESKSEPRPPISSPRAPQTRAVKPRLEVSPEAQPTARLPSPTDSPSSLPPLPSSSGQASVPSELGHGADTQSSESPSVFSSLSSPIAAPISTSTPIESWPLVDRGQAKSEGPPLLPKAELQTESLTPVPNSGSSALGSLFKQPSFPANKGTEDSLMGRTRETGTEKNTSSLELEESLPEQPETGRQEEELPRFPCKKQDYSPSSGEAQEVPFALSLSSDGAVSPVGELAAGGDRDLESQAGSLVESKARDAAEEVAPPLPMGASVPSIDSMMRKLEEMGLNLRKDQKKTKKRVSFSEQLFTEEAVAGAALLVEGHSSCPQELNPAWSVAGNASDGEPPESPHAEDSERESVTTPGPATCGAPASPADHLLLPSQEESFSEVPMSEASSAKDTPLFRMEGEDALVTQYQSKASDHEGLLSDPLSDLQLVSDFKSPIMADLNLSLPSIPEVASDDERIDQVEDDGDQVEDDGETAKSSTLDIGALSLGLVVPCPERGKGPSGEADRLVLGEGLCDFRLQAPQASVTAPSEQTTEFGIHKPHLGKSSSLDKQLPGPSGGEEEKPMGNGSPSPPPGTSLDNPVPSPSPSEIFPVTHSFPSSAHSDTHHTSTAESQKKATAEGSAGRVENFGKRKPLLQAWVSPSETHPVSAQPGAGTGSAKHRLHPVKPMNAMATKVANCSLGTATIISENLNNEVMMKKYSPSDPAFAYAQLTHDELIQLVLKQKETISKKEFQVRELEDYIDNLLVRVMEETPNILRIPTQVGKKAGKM
UniProt Q8WU10: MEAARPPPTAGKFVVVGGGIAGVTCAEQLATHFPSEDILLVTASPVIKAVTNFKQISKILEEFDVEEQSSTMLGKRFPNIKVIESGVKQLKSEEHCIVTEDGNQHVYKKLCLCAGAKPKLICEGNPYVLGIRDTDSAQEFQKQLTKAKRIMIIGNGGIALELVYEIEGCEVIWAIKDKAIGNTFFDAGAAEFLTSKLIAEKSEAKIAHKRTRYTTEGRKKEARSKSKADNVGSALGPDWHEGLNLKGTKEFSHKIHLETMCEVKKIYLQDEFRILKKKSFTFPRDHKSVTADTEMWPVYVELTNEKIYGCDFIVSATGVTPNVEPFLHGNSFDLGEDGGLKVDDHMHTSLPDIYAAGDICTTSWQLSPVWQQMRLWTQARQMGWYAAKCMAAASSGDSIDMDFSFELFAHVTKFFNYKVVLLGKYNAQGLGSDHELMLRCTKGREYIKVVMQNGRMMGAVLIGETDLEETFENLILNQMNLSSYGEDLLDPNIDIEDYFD
UniProt Q6GYQ0: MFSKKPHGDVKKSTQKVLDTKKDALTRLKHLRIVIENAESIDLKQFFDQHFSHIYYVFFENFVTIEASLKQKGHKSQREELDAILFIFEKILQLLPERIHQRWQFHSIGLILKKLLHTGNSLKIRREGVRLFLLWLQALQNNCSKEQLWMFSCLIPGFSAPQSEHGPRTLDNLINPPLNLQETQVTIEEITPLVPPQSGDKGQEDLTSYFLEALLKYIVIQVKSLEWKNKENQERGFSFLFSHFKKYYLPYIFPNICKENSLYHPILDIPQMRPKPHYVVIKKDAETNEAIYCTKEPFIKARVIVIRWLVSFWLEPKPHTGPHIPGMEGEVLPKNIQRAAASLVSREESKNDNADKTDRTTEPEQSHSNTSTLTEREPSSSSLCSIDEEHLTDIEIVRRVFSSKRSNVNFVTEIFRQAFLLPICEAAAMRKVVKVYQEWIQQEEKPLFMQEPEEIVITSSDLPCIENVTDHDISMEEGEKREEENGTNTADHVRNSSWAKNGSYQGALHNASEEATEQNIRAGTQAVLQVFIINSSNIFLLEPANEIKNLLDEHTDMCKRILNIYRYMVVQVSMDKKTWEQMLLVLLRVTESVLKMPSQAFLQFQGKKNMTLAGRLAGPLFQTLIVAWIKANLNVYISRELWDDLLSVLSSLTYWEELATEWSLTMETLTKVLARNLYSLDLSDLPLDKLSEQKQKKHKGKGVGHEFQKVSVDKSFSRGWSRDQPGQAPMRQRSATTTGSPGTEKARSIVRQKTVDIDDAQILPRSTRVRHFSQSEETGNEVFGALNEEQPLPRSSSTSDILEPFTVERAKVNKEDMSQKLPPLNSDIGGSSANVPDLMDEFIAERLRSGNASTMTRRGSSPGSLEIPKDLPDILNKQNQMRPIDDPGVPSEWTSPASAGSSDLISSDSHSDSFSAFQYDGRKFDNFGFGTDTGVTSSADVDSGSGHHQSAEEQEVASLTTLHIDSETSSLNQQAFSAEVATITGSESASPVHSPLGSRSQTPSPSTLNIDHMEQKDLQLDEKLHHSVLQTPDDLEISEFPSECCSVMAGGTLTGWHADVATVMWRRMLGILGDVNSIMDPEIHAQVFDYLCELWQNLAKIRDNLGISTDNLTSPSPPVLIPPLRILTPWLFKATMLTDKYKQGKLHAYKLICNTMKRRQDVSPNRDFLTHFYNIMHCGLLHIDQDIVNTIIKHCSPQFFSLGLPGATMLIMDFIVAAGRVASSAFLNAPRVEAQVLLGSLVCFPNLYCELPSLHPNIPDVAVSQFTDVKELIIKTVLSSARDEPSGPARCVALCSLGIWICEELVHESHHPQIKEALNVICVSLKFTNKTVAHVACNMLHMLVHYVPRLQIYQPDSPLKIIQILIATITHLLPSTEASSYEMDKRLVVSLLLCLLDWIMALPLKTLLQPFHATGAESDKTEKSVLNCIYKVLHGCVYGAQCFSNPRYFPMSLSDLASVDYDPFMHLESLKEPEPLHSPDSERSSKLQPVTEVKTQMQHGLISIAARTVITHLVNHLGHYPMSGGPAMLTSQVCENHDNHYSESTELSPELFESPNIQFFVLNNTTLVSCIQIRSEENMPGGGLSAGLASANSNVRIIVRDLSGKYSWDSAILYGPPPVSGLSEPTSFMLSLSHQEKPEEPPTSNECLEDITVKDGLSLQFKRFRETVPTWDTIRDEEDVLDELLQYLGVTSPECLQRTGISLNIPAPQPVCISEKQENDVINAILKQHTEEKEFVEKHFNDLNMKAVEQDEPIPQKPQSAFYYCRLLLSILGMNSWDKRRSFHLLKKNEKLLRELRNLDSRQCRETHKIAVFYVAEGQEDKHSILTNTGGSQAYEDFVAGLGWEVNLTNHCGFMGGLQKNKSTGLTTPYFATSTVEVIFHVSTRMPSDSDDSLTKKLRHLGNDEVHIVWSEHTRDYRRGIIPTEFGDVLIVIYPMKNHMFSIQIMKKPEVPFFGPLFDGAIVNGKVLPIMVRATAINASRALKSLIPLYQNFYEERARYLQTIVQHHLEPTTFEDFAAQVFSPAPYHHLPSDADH
UniProt Q96S59, whole entry, looked up: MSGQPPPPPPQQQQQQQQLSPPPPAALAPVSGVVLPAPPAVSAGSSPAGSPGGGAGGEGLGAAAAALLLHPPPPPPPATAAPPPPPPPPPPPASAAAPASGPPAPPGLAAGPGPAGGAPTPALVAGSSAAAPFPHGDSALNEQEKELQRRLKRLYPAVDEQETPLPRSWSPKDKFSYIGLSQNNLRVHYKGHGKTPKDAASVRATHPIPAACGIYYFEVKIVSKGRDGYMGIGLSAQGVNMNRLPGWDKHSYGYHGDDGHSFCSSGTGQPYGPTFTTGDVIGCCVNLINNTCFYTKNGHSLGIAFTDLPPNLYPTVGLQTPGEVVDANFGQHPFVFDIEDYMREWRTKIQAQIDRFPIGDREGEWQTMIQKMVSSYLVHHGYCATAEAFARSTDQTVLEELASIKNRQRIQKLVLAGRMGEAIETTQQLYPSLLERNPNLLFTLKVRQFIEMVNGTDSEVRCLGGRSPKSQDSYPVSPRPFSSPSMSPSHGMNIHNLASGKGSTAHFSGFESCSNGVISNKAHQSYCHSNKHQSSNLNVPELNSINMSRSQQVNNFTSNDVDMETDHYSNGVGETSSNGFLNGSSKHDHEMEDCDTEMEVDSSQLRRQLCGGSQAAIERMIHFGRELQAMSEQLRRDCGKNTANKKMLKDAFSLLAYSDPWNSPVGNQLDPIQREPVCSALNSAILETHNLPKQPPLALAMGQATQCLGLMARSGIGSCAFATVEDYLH
UniProt P47224: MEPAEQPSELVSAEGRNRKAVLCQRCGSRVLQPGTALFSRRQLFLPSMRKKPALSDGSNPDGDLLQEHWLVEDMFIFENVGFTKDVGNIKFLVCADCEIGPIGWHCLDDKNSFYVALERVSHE
UniProt P78406: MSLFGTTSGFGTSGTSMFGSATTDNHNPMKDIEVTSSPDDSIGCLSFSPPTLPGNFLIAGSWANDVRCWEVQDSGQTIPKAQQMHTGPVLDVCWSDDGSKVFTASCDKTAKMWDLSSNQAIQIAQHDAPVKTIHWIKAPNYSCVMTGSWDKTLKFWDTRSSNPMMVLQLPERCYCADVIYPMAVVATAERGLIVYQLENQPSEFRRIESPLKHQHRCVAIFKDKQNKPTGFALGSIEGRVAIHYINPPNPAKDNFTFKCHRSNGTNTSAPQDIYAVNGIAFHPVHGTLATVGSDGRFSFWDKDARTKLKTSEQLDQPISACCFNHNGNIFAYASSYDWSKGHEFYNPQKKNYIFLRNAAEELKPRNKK

Assays:
Assay in all cases: log2 fold change, soluble protein after heating vs DMSO (PISA); higher = thermal stabilisation; K562 lysate, 10 uM; active = over 0.2 and 3.5 SD of the protein, either way, in both replicates (recomputed)
[1] = compound: NCC(=O)Nc1ccc(-n2nc(C(F)(F)F)cc2-c2ccc3c(ccc4ccccc43)c2)cc1
In short: (§1)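 The values are log-two fold changes in thermal stability compared with solvent controls and come from duplicates. They were obtained by TMTpro 16plex LC-MS/MS, with channel sums equalised, on the supernatant after 21,000xg for 90 min. That supernatant came from crude K562 extract at 1 mg/mL protein treated with 10 μM compound for 30 min, heated for 3 min across 48°C-58°C, pooled and brought to 0.5% NP-40 at 4°C.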

vorinostat = compound: O=C(CCCCCCC(=O)Nc1ccccc1)NO [vorinostat]
In short: as §1

silmitasertib = compound: O=C(O)c1ccc2c(c1)nc(Nc1cccc(Cl)c1)c1ccncc12 [silmitasertib]
In short: as §1

[2] = compound: O=C1NC(=O)C(c2cnc3ccccn23)=C1c1cn2c3c(cc(F)cc13)CN(C(=O)N1CCCCC1)CC2
In short: as §1

entospletinib = compound: c1cn2cc(-c3ccc4cn[nH]c4c3)nc(Nc3ccc(N4CCOCC4)cc3)c2n1 [entospletinib]
In short: as §1

RABGGTB (UniProt P53611)
log2 fold change [1]: inactive: -0.058 | log2 fold change (vorinostat): active: -0.286 | log2 fold change (silmitasertib): inactive: 0.006 | log2 fold change [2]: inactive: -0.005 | log2 fold change (entospletinib): inactive: -0.044

RABEP2 (UniProt Q9H5N1)
log2 fold change [1]: inactive: 0.062 | log2 fold change (vorinostat): inactive: -0.072 | log2 fold change (silmitasertib): inactive: -0.008 | log2 fold change [2]: inactive: 0.031 | log2 fold change (entospletinib): inactive: -0.028

RABGGTA (UniProt Q92696)
log2 fold change [1]: inactive: -0.02 | log2 fold change (vorinostat): inactive: -0.068 | log2 fold change (silmitasertib): inactive: 0.054 | log2 fold change [2]: inactive: -0.019 | log2 fold change (entospletinib): inactive: 0

RAP1A (UniProt P62834)
log2 fold change [1]: inactive: 0.026 | log2 fold change (vorinostat): inactive: 0.147 | log2 fold change (silmitasertib): inactive: -0.009 | log2 fold change [2]: inactive: 0.019 | log2 fold change (entospletinib): inactive: -0.012

PYGB (UniProt P11216)
log2 fold change [1]: inactive: -0.024 | log2 fold change (vorinostat): inactive: -0.004 | log2 fold change (silmitasertib): inactive: 0.115 | log2 fold change [2]: inactive: -0.006 | log2 fold change (entospletinib): inactive: -0.049

PYM1 (UniProt Q9BRP8)
log2 fold change [1]: inactive: 0.05 | log2 fold change (vorinostat): inactive: 0.147 | log2 fold change (silmitasertib): inactive: -0.041 | log2 fold change [2]: inactive: 0.024 | log2 fold change (entospletinib): inactive: -0.015

RAPGEF2, A0A2R8YGD3
log2 fold change [1]: inactive: -0.041 | log2 fold change (vorinostat): inactive: 0.2 | log2 fold change (silmitasertib): inactive: -0.007 | log2 fold change [2]: inactive: 0.015 | log2 fold change (entospletinib): inactive: -0.046

RAP1B (UniProt P61224)
log2 fold change [1]: inactive: 0.048 | log2 fold change (vorinostat): inactive: 0.078 | log2 fold change (silmitasertib): inactive: -0.036 | log2 fold change [2]: inactive: -0.024 | log2 fold change (entospletinib): inactive: -0.012

RAC2 (UniProt P15153)
log2 fold change [1]: inactive: -0.073 | log2 fold change (vorinostat): active: -0.25 | log2 fold change (silmitasertib): inactive: 0.024 | log2 fold change [2]: inactive: 0.102 | log2 fold change (entospletinib): inactive: 0.024

RAMAC (UniProt Q9BTL3)
log2 fold change [1]: inactive: -0.021 | log2 fold change (vorinostat): inactive: 0.058 | log2 fold change (silmitasertib): inactive: -0.089 | log2 fold change [2]: inactive: -0.007 | log2 fold change (entospletinib): inactive: 0.04

RAB22A (UniProt Q9UL26)
log2 fold change [1]: inactive: 0.024 | log2 fold change (vorinostat): inactive: 0.087 | log2 fold change (silmitasertib): inactive: -0.073 | log2 fold change [2]: inactive: -0.021 | log2 fold change (entospletinib): inactive: 0.033

RAB32 (UniProt Q13637)
log2 fold change [1]: inactive: -0.081 | log2 fold change (vorinostat): inactive: 0.092 | log2 fold change (silmitasertib): inactive: -0.003 | log2 fold change [2]: inactive: 0.01 | log2 fold change (entospletinib): inactive: -0.028

RAB11FIP1 (UniProt Q6WKZ4)
log2 fold change [1]: inactive: 0.014 | log2 fold change (vorinostat): inactive: 0.031 | log2 fold change (silmitasertib): inactive: 0.033 | log2 fold change [2]: inactive: 0.006 | log2 fold change (entospletinib): inactive: -0.004

RAB1B (UniProt Q9H0U4)
log2 fold change [1]: inactive: 0.025 | log2 fold change (vorinostat): inactive: 0.186 | log2 fold change (silmitasertib): inactive: 0.007 | log2 fold change [2]: inactive: -0.039 | log2 fold change (entospletinib): inactive: -0.011

PYROXD1 (UniProt Q8WU10)
log2 fold change [1]: inactive: -0.06 | log2 fold change (vorinostat): inactive: -0.193 | log2 fold change (silmitasertib): inactive: 0.035 | log2 fold change [2]: inactive: -0.03 | log2 fold change (entospletinib): inactive: -0.102

RALGAPA1 isoform 6 (UniProt Q6GYQ0)
log2 fold change [1]: inactive: 0.047 | log2 fold change (vorinostat): inactive: 0.034 | log2 fold change (silmitasertib): inactive: -0.054 | log2 fold change [2]: inactive: -0.027 | log2 fold change (entospletinib): inactive: -0.022

RANBP9 (UniProt Q96S59)
log2 fold change [1]: inactive: -0.005 | log2 fold change (vorinostat): inactive: -0.129 | log2 fold change (silmitasertib): inactive: 0.017 | log2 fold change [2]: inactive: -0.008 | log2 fold change (entospletinib): inactive: -0.001

RABIF (UniProt P47224)
log2 fold change [1]: inactive: -0.07 | log2 fold change (vorinostat): inactive: 0.165 | log2 fold change (silmitasertib): inactive: 0.032 | log2 fold change [2]: inactive: -0.029 | log2 fold change (entospletinib): inactive: -0.015

RABEPK (UniProt Q7Z6M1)
log2 fold change [1]: inactive: 0.008 | log2 fold change (vorinostat): active: -0.441 | log2 fold change (silmitasertib): inactive: 0.032 | log2 fold change [2]: inactive: 0.014 | log2 fold change (entospletinib): inactive: 0.009

RABGEF1 isoform 3 (UniProt Q9UJ41)
log2 fold change [1]: inactive: -0.009 | log2 fold change (vorinostat): inactive: 0.03 | log2 fold change (silmitasertib): inactive: -0.025 | log2 fold change [2]: inactive: -0.013 | log2 fold change (entospletinib): inactive: -0.002

RAB12 (UniProt Q6IQ22)
log2 fold change [1]: inactive: 0.021 | log2 fold change (vorinostat): inactive: 0.021 | log2 fold change (silmitasertib): inactive: 0.003 | log2 fold change [2]: inactive: -0.053 | log2 fold change (entospletinib): inactive: 0

RAC1 isoform 2 (UniProt P63000)
log2 fold change [1]: inactive: 0.015 | log2 fold change (vorinostat): inactive: 0.011 | log2 fold change (silmitasertib): inactive: 0.005 | log2 fold change [2]: inactive: -0.051 | log2 fold change (entospletinib): inactive: -0.003

RAB8B (UniProt Q92930)
log2 fold change [1]: inactive: -0.022 | log2 fold change (vorinostat): inactive: 0.135 | log2 fold change (silmitasertib): inactive: -0.025 | log2 fold change [2]: inactive: 0 | log2 fold change (entospletinib): inactive: -0.021

RAE1 (UniProt P78406)
log2 fold change [1]: inactive: 0.007 | log2 fold change (vorinostat): inactive: -0.126 | log2 fold change (silmitasertib): inactive: -0.022 | log2 fold change [2]: inactive: -0.062 | log2 fold change (entospletinib): inactive: -0.024
